Some entries share one result that the patent states for a list of compounds.
System: HFSC cells
Assay: Expansion of HFSC cells with growth factors and supplements (live cell count)
Format: cell-based, human
Details: addition of 5 ng/ml NT-3 and/or 10 ng/ml IGF-1 to 20 ng/ml PDGF-AA + 10 ng/ml bFGF; cell line #2b, passage 3
Method: FIG. 4 illustrates the expansion rate of HFSC cells (cell line #2b) in the presence of different combinations of growth factors: (1): 20 ng/ml PDGF-AA+10 ng/ml bFGF; (2): 20 ng/ml PDGF-AA+10 ng/ml bFGF+5 ng/ml NT-3; (3): 20 ng/ml PDGF-AA+10 ng/ml bFGF+10 ng/ml IGF-1; (4): 20 ng/ml PDGF-AA+10 ng/ml bFGF+5 ng/ml NT-3+10 ng/ml IGF-1. The cells were harvested at day 11 of passage 3 (P3D11) and number of live cells in each condition was counted. Then, they were passaged in the same condition that was used at passage 3 at the same cell density. The cells were harvested at day 8 of passage 4 (P4D8) and number of live cells in each condition was counted (these cells were harvested before they became sub-confluent because they started forming spheres). […] Condition (3) was effective at both passages. […] The cells were harvested at day 7 of passage 5 (these cells were harvested before they became sub-confluent because they started forming spheres as they did at passage 4) and number of live cells in each condition was counted. […]

B1: neurotrophin-3 (protein, UniProt P20783 139-257, looked up)
Neurotrophin-3: YAEHKSHRGEYSVCDSESLWVTDKSSAIDIRGHQVTVLGEIKTGNSPVKQYFYETRCKEARPVKNGCRGIDDKHWNSQCKTSQTYVRALTSENNKLVGWRWIRIDTSCVCALSRKIGRT
notes: growth factor
Question: Which expansion rate does the source give for B1 here?
Answer: Its expansion rate is greater than 1.

Reference: US8993320B2, “Culture method to obtain and maintain a pure or enriched population of mammalian neural stem cells and/or neural/progenitor cells that are prone to differentiate into oligodendrocyte-lineage cells in vitro” (priority 2011, dated 2015)
